According to patent publication EP0459561B1, “Dioxo-tetrahydroquinoline derivatives” (MERCK SHARP & DOHME LTD., priority 1990, dated 1991):
Some entries share one result that the patent states for a list of compounds.

Test system: AMPA receptors
Test: Rat cortical slice, responses to AMPA
Assay type: cell-based
Conditions: read-out: Kb value in response to AMPA (apparent equilibrium constant), calculated from righthand shift in the AMPA concentration-response curve

## CCOC(=O)C1C(=O)Nc2cc([N+](=O)[O-])c([N+](=O)[O-])cc2C1=O (stereo not shown) [Example 50, Ethyl 6,7-Dinitro-2,4-dioxo-3-(1,2,3,4-tetrahydroquinoline)carboxylate]
  Kb: < 150 µM
